PubChem BioAssay AID602196 | INSERM, 2012
In all, the deposit lists about 23,000 reagents; this is an unselected part. 455 of all reagents (2%) were called active. 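Active includes both protection and sensitisation; some change values fall well beyond the stated -50 to +50 range.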 Entries without a mark were called inactive. Reagents against one gene are numbered here. Not all columns of the deposit are shown. Not given: the amount of reagent.

- Test: 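Genes whose knock-down alters cisplatin killing of lung cancer cells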
- Cell system: human A549 lung cancer cells
- Reagents: siRNA pair against human genes
- Duration: 48 h transfection before cisplatin; time from cisplatin to read-out not stated
- Challenge: cisplatin at a dose killing half of control-siRNA cells; exact dose and duration not given
- Read-out: 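Shift in cisplatin death relative to control siRNA, from -50 (all cells die) to +50 (no cells die); siRNAs harmful on their own scored 0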
- Direction: two-siRNA summed score (-2 to +2): higher = both siRNAs protect from cisplatin killing; -2 means both sensitise
- Rule for the call: 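Each siRNA scores 0 if harmful alone by LDH or WST-1, otherwise +1 if it reduces and -1 if it increases cisplatin killing; a gene is active when both siRNAs agree (sum +2 or -2)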
- Meaning of the calls: active = both siRNAs shift cisplatin killing the same way; inactive = no consistent shift, or siRNA harmful alone

{"gene": "PSMC1 (proteasome 26S subunit, ATPase 1)", "reagent": 1, "two-siRNA summed score (-2 to +2)": 1}
{"gene": "SLC19A2", "reagent": 1, "two-siRNA summed score (-2 to +2)": -1}
{"gene": "LOC441853", "reagent": 1, "two-siRNA summed score (-2 to +2)": 1}
{"gene": "GFOD1 (Gfo/Idh/MocA-like oxidoreductase domain containing 1)", "reagent": 1, "two-siRNA summed score (-2 to +2)": 0}
{"gene": "GFOD1 (Gfo/Idh/MocA-like oxidoreductase domain containing 1)", "reagent": 2, "two-siRNA summed score (-2 to +2)": 1}
{"gene": "DELE1 (DAP3 binding cell death enhancer 1)", "reagent": 1, "two-siRNA summed score (-2 to +2)": 1}
{"gene": "RHOT2 (ras homolog family member T2)", "reagent": 1, "two-siRNA summed score (-2 to +2)": 1}
{"gene": "JAM2 (junctional adhesion molecule 2)", "reagent": 1, "two-siRNA summed score (-2 to +2)": -1}
{"gene": "ITGBL1 (integrin subunit beta like 1)", "reagent": 1, "two-siRNA summed score (-2 to +2)": 0}
{"gene": "FOSB (FosB proto-oncogene, AP-1 transcription factor subunit)", "reagent": 1, "two-siRNA summed score (-2 to +2)": 0}
{"gene": "GP2 (glycoprotein 2)", "reagent": 1, "two-siRNA summed score (-2 to +2)": -1}
{"gene": "SLC30A6", "reagent": 1, "two-siRNA summed score (-2 to +2)": 0}
{"gene": "EFCAB13 (EF-hand calcium binding domain 13)", "reagent": 1, "two-siRNA summed score (-2 to +2)": -1}
{"gene": "LOC442059", "reagent": 1, "two-siRNA summed score (-2 to +2)": 0}
{"gene": "IL31RA (interleukin 31 receptor A)", "reagent": 1, "two-siRNA summed score (-2 to +2)": 0}
{"gene": "H2BC3 (H2B clustered histone 3)", "reagent": 1, "two-siRNA summed score (-2 to +2)": 0}
{"gene": "GCNT2 (glucosaminyl (N-acetyl) transferase 2 (I blood group))", "reagent": 1, "two-siRNA summed score (-2 to +2)": 1}
{"gene": "MDFI (MyoD family inhibitor)", "reagent": 1, "two-siRNA summed score (-2 to +2)": -1}
{"gene": "OTOA (otoancorin)", "reagent": 1, "two-siRNA summed score (-2 to +2)": 0}

Continued; the last 3 above are carried over.
{"gene": "GCNT2 (glucosaminyl (N-acetyl) transferase 2 (I blood group))", "reagent": 1, "two-siRNA summed score (-2 to +2)": 1}
{"gene": "MDFI (MyoD family inhibitor)", "reagent": 1, "two-siRNA summed score (-2 to +2)": -1}
{"gene": "OTOA (otoancorin)", "reagent": 1, "two-siRNA summed score (-2 to +2)": 0}
{"gene": "OR52N5 (olfactory receptor family 52 subfamily N member 5)", "reagent": 1, "two-siRNA summed score (-2 to +2)": 0}
{"gene": "GIPC3 (GIPC PDZ domain containing family member 3)", "reagent": 1, "two-siRNA summed score (-2 to +2)": 0}
{"gene": "TRIM11 (tripartite motif containing 11)", "reagent": 1, "two-siRNA summed score (-2 to +2)": 1}
{"gene": "LOC442410", "reagent": 1, "two-siRNA summed score (-2 to +2)": 0}
{"gene": "FBXL18 (F-box and leucine rich repeat protein 18)", "reagent": 1, "two-siRNA summed score (-2 to +2)": -1}
{"gene": "LOC392447", "reagent": 1, "two-siRNA summed score (-2 to +2)": 1}
{"gene": "ALG14 (ALG14 UDP-N-acetylglucosaminyltransferase subunit)", "reagent": 1, "two-siRNA summed score (-2 to +2)": 0}
{"gene": "DLGAP3 (DLG associated protein 3)", "reagent": 1, "two-siRNA summed score (-2 to +2)": 0}
{"gene": "STK38 (serine/threonine kinase 38)", "reagent": 1, "two-siRNA summed score (-2 to +2)": 1}
{"gene": "P2RX6 (purinergic receptor P2X 6)", "reagent": 1, "two-siRNA summed score (-2 to +2)": 0}
{"gene": "CHST15 (carbohydrate sulfotransferase 15)", "reagent": 1, "two-siRNA summed score (-2 to +2)": 0}
{"gene": "LOC442710 (retired record)", "reagent": 1, "two-siRNA summed score (-2 to +2)": 1}
{"gene": "LOC440266", "reagent": 1, "two-siRNA summed score (-2 to +2)": 0}
{"gene": "CRIPAK (retired record)", "reagent": 1, "two-siRNA summed score (-2 to +2)": 0}
{"gene": "RHAG (Rh associated glycoprotein)", "reagent": 1, "two-siRNA summed score (-2 to +2)": -1}
{"gene": "KHNYN (KH and NYN domain containing)", "reagent": 1, "two-siRNA summed score (-2 to +2)": 0}
{"gene": "RASSF6 (Ras association domain family member 6)", "reagent": 1, "two-siRNA summed score (-2 to +2)": 1}
{"gene": "RBFOX2 (RNA binding fox-1 homolog 2)", "reagent": 1, "two-siRNA summed score (-2 to +2)": 0}
{"gene": "FGG (fibrinogen gamma chain)", "reagent": 1, "two-siRNA summed score (-2 to +2)": 0}
{"gene": "B4GALT5 (beta-1,4-galactosyltransferase 5)", "reagent": 1, "two-siRNA summed score (-2 to +2)": 0}
{"gene": "WDR83OS (WD repeat domain 83 opposite strand)", "reagent": 1, "two-siRNA summed score (-2 to +2)": 0}
